Results are given in words; binding and its absence hold for the method and conditions named. Some binding calls cover weakened binding; strength is not graded here.
Biological target: T1, biotinylated human CD20 extracellular loop peptide (amino acids 165-185) (human)
T1 sequence (peptide, biotin at the C-terminus (printed as SEQ ID NO, 1-biotin)): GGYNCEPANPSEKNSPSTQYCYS
Assay: selection from the G4 library against the CD20 peptide

- binding: binds
B1: FN3CD20 clone displayed on the yeast surface (designed binder, not shown: large carriers)
chain: ASVSDVPRDLEVVAATPTSLLISWCRQRCADSYRITYGETGGNSPVQEFTVPGSWKTATISGLKPGVDYTITVYVVTHYYGWDRYSHPISINYRTGSHHHHHH
notes: also called one clone; this clone
